PubChem BioAssay AID1259405 – NCATS – 2018
The deposit covers about 50,000 reagents; shown is a random part of them. About 4,000 of all reagents (8%) count as active. 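Mouse siRNA library applied to hamster cells; one well for each siRNA.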 Unmarked entries are inactive. Reagents against one gene are numbered here. No sequences are given here.

Assay: 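Mouse-designed siRNAs used to find CHO productivity engineering targets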 (primary screen)
Cell system: Chinese hamster CHO-K1 ovary cells with stable secreted eGFP expression
Reagent: single siRNA against mouse genes, 0.8 pmol siRNA per well (2 µl of 400 nM stock)
Timing: 3 days
Detection: 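Per-well intracellular GFP measured by laser scanning cytometry, plus viability from ATP luminescence, each relative to plate median of non-targeting control wells, in %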
Scale: GFP, % of control: higher = more GFP per well, higher productivity; viability (ATP), % of control: higher = more viable cells (more ATP)
Active means: 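a knock-down is called active if GFP reaches 120% or more of non-targeting control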

4933436I01Rik (GeneID 66780) #1 gave GFP, % of control 30.7; viability (ATP), % of control 38.4.
After knock-down of 4933436I01Rik (GeneID 66780) #2, the screen gave GFP, % of control 131 (active); viability (ATP), % of control 117.
Against 4933436I01Rik (GeneID 66780) #3, the entry reads GFP, % of control 102; viability (ATP), % of control 125.
Cd200r3 (GeneID 74603) #1 scored GFP, % of control 74; viability (ATP), % of control 81.6.
With knock-down of Cd200r3 (GeneID 74603) #2, the screen gave GFP, % of control 53.4; viability (ATP), % of control 75.5.
Cd200r3 (GeneID 74603) #3 showed GFP, % of control 98.2; viability (ATP), % of control 68.6.
Pnpo (GeneID 103711) #1 scored GFP, % of control 73.6; viability (ATP), % of control 51.2.
Pnpo (GeneID 103711) #2 scored GFP, % of control 85.7; viability (ATP), % of control 58.1.
Knock-down of Pnpo (GeneID 103711) #3 gave: GFP, % of control 41.6; viability (ATP), % of control 78.2.
Against Lrrc41 (GeneID 230654) #1, the entry reads GFP, % of control 64.4; viability (ATP), % of control 86.
Against Lrrc41 (GeneID 230654) #2, the entry reads GFP, % of control 83; viability (ATP), % of control 52.1.
After knock-down of Lrrc41 (GeneID 230654) #3, the screen gave GFP, % of control 104; viability (ATP), % of control 101.
For Tnfrsf1a (GeneID 21937) #1, the values are GFP, % of control 77.1; viability (ATP), % of control 53.2.
Tnfrsf1a (GeneID 21937) #2 gave GFP, % of control 61.8; viability (ATP), % of control 37.9.
Knock-down of Tnfrsf1a (GeneID 21937) #3 resulted in: GFP, % of control 71.6; viability (ATP), % of control 74.1.
Drc11 (GeneID 74918) #1 scored GFP, % of control 51.9; viability (ATP), % of control 80.1.
With knock-down of Drc11 (GeneID 74918) #2 the results were GFP, % of control 110; viability (ATP), % of control 71.6.
With knock-down of Drc11 (GeneID 74918) #3 the results were GFP, % of control 89.2; viability (ATP), % of control 137.
Depletion of Parp1 (GeneID 11545) #1 came out at: GFP, % of control 65.3; viability (ATP), % of control 62.2.
With knock-down of Parp1 (GeneID 11545) #2, the record shows GFP, % of control 128 (active); viability (ATP), % of control 123.
Silencing of Parp1 (GeneID 11545) #3 gave: GFP, % of control 72.8; viability (ATP), % of control 83.8.
Sidt2 (GeneID 214597) #1 gave GFP, % of control 83.9; viability (ATP), % of control 113.
Depletion of Sidt2 (GeneID 214597) #2 gave: GFP, % of control 77.2; viability (ATP), % of control 65.9.
Sidt2 (GeneID 214597) #3 scored GFP, % of control 177 (active); viability (ATP), % of control 141.
Knock-down of Rai14 (GeneID 75646) #1 gave: GFP, % of control 57; viability (ATP), % of control 78.3.
Rai14 (GeneID 75646) #2 gave GFP, % of control 60.1; viability (ATP), % of control 74.7.
Rai14 (GeneID 75646) #3 showed GFP, % of control 52.7; viability (ATP), % of control 54.1.
With knock-down of Cyp2b10 (GeneID 13088) #1 the results were GFP, % of control 115; viability (ATP), % of control 117.
Against Cyp2b10 (GeneID 13088) #2 the deposit lists GFP, % of control 92.8; viability (ATP), % of control 91.9.
After knock-down of Cyp2b10 (GeneID 13088) #3, the record shows GFP, % of control 106; viability (ATP), % of control 63.5.
Vipas39 (GeneID 104799) #1 gave GFP, % of control 94.3; viability (ATP), % of control 47.7.
With knock-down of Vipas39 (GeneID 104799) #2 the results were GFP, % of control 114; viability (ATP), % of control 102.
Depletion of Vipas39 (GeneID 104799) #3 resulted in: GFP, % of control 96.3; viability (ATP), % of control 138.
With knock-down of Cnpy2 (GeneID 56530) #1 the results were GFP, % of control 98.4; viability (ATP), % of control 90.4.
With knock-down of Cnpy2 (GeneID 56530) #2, the record shows GFP, % of control 120 (active); viability (ATP), % of control 101.
Cnpy2 (GeneID 56530) #3 showed GFP, % of control 103; viability (ATP), % of control 58.8.
Ppp1cb (GeneID 19046) #1 gave GFP, % of control 96.1; viability (ATP), % of control 91.6.
For Ppp1cb (GeneID 19046) #2, the entry reads GFP, % of control 77.2; viability (ATP), % of control 74.1.
For Ppp1cb (GeneID 19046) #3, the entry reads GFP, % of control 173 (active); viability (ATP), % of control 80.2.
Knock-down of Ctsw (GeneID 13041) #1 came out at: GFP, % of control 80.2; viability (ATP), % of control 93.3.
For Ctsw (GeneID 13041) #2, the values are GFP, % of control 101; viability (ATP), % of control 40.7.
Against Ctsw (GeneID 13041) #3, the entry reads GFP, % of control 92.4; viability (ATP), % of control 61.8.

Already shown: 4 of the entries above.
Vipas39 (GeneID 104799) #3 | GFP, % of control = 96.3; viability (ATP), % of control = 138
Cnpy2 (GeneID 56530) #1 | GFP, % of control = 98.4; viability (ATP), % of control = 90.4
Cnpy2 (GeneID 56530) #2 | GFP, % of control = 120 (active); viability (ATP), % of control = 101
Cnpy2 (GeneID 56530) #3 | GFP, % of control = 103; viability (ATP), % of control = 58.8
